Results as given in patent US20240002351A1, “QUINAZOLIN-4-ONE AND THIENO[2,3-D]PYRIMIDIN-4-ONE INHIBITORS OF ERBB4 (HER4) FOR USE IN THE TREATMENT OF CANCER” (UNIVERSITEIT ANTWERPEN, priority 2021, published 2024).
Some entries share one result that the patent states for a list of compounds.

Tested on: Human dermal fibroblasts (HDF)
Experiment: In vitro fibrosis assay, TGFβ-stimulated HDF (qRT-PCR)
Format: cell-based
Settings: TGFβ 10 ng/mL; for col3a1 levels in comparison with TGFβ control: 24 hours (FIG. 8B); for col1a1 levels in comparison with TGFβ control: 24 hours (FIG. 8A)
Experimental: Human dermal fibroblasts (HDF, Cell applications, 106-05A) were cultured in Dulbecco's modified Eagle's medium (DMEM, ThermoFisher Scientific, 11995065) supplemented with 10% (v/v) heat-inactivated fetal bovine serum (FBS, ThermoFisher Scientific, 10082147), 1% penicillin/streptomycin and 1 mL polymyxin B and were maintained at 37° C. in humidified atmosphere of 5% CO2 in air. Human atrial cardiac fibroblasts (HCF, Innoprot, P10454) were cultured in fibroblast medium (Innoprot, P60108) supplemented with fetal bovine serum, fibroblast growth supplement and penicillin/streptomycin and were maintained at 37° C. in humidified atmosphere of 5% CO2 in air.
Following 1-9 passages, HDF and HCF were seeded at 0.3×10^6 cells/well in 1 mL cell medium in 12-well plates and incubated overnight at 37° C. in humidified atmosphere of 5% CO2 in air. Next, cells were put on serum starved medium (0.1% FBS) for 8 hours and then stimulated for 24 hours with either PBS, active compound (4-32 μM) or non-active compound (NA1, NA2; 4-32 μM) on top of TGFβ (10 ng/mL, Peprotech, 100-21). […] Next, cells were lysed using 100 μL lysis buffer RA1 (of RNA isolation kit below) supplemented with β-mercapto-ethanol (100:1), scraped with a cell scraper and transferred to centrifuge tubes to be stored at −20° C. for a maximum of 2 weeks before RNA isolation.
RNA was extracted using Nucleospin RNA XS (Machery Nagel) according to the manufacturer's instructions. For cDNA synthesis, total RNA was added to a solution containing buffer with random hexamers and reverse transcriptase enzyme. The PCR was performed using the following parameters: 10 minutes at 25° C., 30 minutes at 48° C., 5 minutes at 95° C. RT-qPCR on the cDNA samples was performed using Taqman Universal PCR Master Mix (Applied Biosystems) and Taqman primers according to the manufacturer's instructions. Real-time PCR was carried out using QuantStudio 3 Real-time PCR system (Applied Biosystems) and the following parameters: 2 minutes at 95° C. followed by 10 minutes at 95° C., 40 cycles of denaturation at 95° C. for 15 seconds and 1 minute at 60° C. All reactions were run in duplicate and all data were normalized against housekeeping genes GAPDH and PGK1. Expression levels were calculated using the comparative cycle method and expressed as fold change to appropriate (background) control. Following TaqMan primers were used (Thermofisher Scientific): GAPDH (Hs02758991_g1), PGK1 (Hs99999906_m1), COL1A1 (Hs00164004_m1), COL3A1 (Hs00943809_m1).

Row | SMILES | col3a1 levels in comparison with TGFβ control | col1a1 levels in comparison with TGFβ control
1 | CC(C)n1c(SC(C(=O)NC2CC2)c2ccccc2)nc2sc3c(c2c1=O)CCC3 (centres unmarked) [Compound 4] | significantly decrease col3a1 levels | 
2 | CC(=O)c1ccc(NC(=O)C(C)Sc2nc3ccccc3c(=O)n2C2CCCC2)cc1 (centres unmarked) [Compound 2] | significantly decrease col3a1 levels | 
3 | O=C1NCCCCC1Sc1nc2sc3c(c2c(=O)n1C1CCCC1)CCCC3 (centres unmarked) [Compound 5] | significantly decrease col3a1 levels | 
4 | CC(Sc1nc2ccccc2c(=O)n1C1CCCC1)C(=O)N(C)c1ccccc1 (centres unmarked) [Compound 3] | significantly decrease col3a1 levels | significantly decrease col1a1 levels
5 | Cc1sc2nc(SC(C)C(=O)Nc3sccc3C(N)=O)n(CC(C)C)c(=O)c2c1C (centres unmarked) [Compound 6] | significantly decrease col3a1 levels | significantly decrease col1a1 levels
6 | CC(Sc1nc2ccccc2c(=O)n1C1CCCC1)c1nc2ccccc2n1C(F)F (centres unmarked) [Compound 7] | significantly decrease col3a1 levels | significantly decrease col1a1 levels
7 | Cc1sc2cc(SCC(=O)NC(C)(C#N)C(C)C)n(C3CCCC3)c(=O)c2c1C (centres unmarked) [Compound 8] | significantly decrease col3a1 levels | significantly decrease col1a1 levels
